In PubChem BioAssay AID588590 (National Center for Advancing Translational Sciences (NCATS), 2011):
About 4,000 (1%) of roughly 390,000 compounds were called active. The inconclusive results got no clear call from the source; some entries with a clear call stand among them for comparison. Calls come from the whole dose curve; as a rule, active = well fitted inhibition curve with a large enough effect; inconclusive = small, poorly fitted or top-dose-only effect, or another doubt; inactive = no such curve, though single readings can be large or run the other way. Potencies beside an inconclusive call are fits to weak or partial responses and may not hold up.

Sequences of proteins named here, by UniProt entry; tags and fusion partners are left off. A change or cut given only in a name is not applied to a line headed by its entry.
UniProt Q9UNA4: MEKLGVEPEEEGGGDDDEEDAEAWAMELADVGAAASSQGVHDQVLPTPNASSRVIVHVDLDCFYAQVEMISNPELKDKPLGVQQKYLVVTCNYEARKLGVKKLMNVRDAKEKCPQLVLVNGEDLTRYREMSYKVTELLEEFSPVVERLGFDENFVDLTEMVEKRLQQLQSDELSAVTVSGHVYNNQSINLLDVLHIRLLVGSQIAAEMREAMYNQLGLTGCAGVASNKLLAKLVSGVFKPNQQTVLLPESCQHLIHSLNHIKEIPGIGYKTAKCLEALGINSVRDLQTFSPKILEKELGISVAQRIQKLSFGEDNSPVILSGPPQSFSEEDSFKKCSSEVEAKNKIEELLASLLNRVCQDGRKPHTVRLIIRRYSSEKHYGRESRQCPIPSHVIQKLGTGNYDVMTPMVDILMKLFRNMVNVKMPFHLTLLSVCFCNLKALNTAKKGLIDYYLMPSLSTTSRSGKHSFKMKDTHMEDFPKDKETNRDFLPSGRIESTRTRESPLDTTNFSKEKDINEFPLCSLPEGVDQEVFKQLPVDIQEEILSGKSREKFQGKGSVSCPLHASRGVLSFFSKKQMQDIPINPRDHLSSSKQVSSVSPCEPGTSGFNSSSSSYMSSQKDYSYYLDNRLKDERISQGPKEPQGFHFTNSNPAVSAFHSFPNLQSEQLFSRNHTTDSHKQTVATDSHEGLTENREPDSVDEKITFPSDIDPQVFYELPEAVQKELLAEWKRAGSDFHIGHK

What follows are molecules tested against DNA polymerase iota (Homo sapiens) (UniProt Q9UNA4) (assay: qHTS for Inhibitors of Polymerase Iota). Conditions: Pol iota fluorescent replication assay, 10 min; series mostly up to 115 µM.
In short: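 Fluorescent replication assay read twice, at 0 min and 10 min after adding 50 nM (final) substrate. Enzyme (10 nM) and compounds were first incubated 15 min at room temperature; enzyme-free buffer wells were negative controls.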
Potency is the fitted concentration of half-maximal effect.

Row | SMILES | Potency
1 | O=C(Nc1ccc2c(c1)OCO2)c1n[nH]c(=O)c2ccccc12 | inconclusive: 22.4 µM [inhibitor, partial curve, poor fit]
2 | Cc1ccc(C)c(/C=C(\C(=O)O)c2ccc(S(=O)(=O)N3CCCCC3)s2)c1 | inconclusive: 5.01 µM [inhibitor, full curve, poor fit]
3 | CCN(c1ncnc2c1cnn2-c1cc(Cl)ccc1C)C1CCCCC1 | inactive
4 | CC1=C(C(=O)Nc2cccc(C(=O)NC(C)c3ccccc3)c2)SCCO1 (configuration not stated) | inconclusive: 39.8 µM [inhibitor, single point]
5 | O=C(O)c1cc(Cl)c2c(c1)[C@@H]1C=CC[C@@H]1[C@H](c1ccc(S(=O)(=O)N3CCOCC3)cc1)N2 | inconclusive: 15.8 µM [inhibitor, full curve, poor fit]
6 | C=CCNC(=O)/C(C#N)=C/c1c(C)nn(-c2ccc(Cl)cc2)c1Cl | inconclusive: 25.1 µM [inhibitor, partial curve, poor fit]
7 | Cc1ccccc1-n1c(-c2ccncc2)n[nH]c1=S | inactive
8 | CN(C)S(=O)(=O)c1ccc2c(c1)N(CC(=O)NCc1cccc(Br)c1)C(=O)CS2 | inconclusive: 89.1 µM [inhibitor, single point]
9 | COc1ccc(C)cc1S(=O)(=O)NC1CCCC1 | inactive
10 | COc1cc(CNC2CCCCCCC2)c(Br)cc1OCCO | inactive
11 | O=C(/C=C/c1ccco1)NC(=S)Nc1cccc(-c2nc3ccccc3o2)c1 | inconclusive: 15.8 µM [inhibitor, full curve, poor fit]
12 | COc1ccc(OCC(=O)N2CCN(C(=O)c3ccco3)CC2)cc1 | inconclusive: 39.8 µM [inhibitor, single point]
13 | O=c1cc2nc(-c3cccs3)nc(SCCOc3ccc(Cl)cc3)n2[nH]1 | inconclusive: 89.1 µM [inhibitor, single point]
14 | CN(C)c1ccc(C(=O)OCC(=O)Nc2ccc(N3CCOCC3)cc2)cc1 | inconclusive: 0.708 µM [inhibitor, full curve, poor fit]
15 | Cc1c(C(=O)NNC(=O)c2ccccc2O)oc2ccc(Br)cc12 | inconclusive: 56.2 µM [inhibitor, partial curve]
16 | COc1ccccc1-c1cccc([C@@H]2C[C@H]3[C@H](CON3C)CN2Cc2cc(Cl)cc(Cl)c2)c1 | inconclusive: 89.1 µM [inhibitor, single point]
17 | O=C1CCC/C1=C/Nc1ccc(Cl)cc1 | inactive
18 | COc1ccccc1CNC(=O)Nc1cccs1 | inconclusive: 11.2 µM [inhibitor, partial curve]
19 | CC(=O)Nc1cccc2cc(O)ccc12 | inconclusive: 39.8 µM [inhibitor, partial curve, poor fit]
20 | O=C(Nc1ccc(F)cc1)C1CCCN(c2cnccn2)C1 (configuration not stated) | inconclusive: 22.4 µM [inhibitor, full curve, poor fit]
21 | CN=c1scc(-c2ccccc2F)n1/N=C/c1ccc(O)c(O)c1O | inconclusive: 7.94 µM [inhibitor, full curve, poor fit]

Three compounds picked at random from the list so far, as already listed:
Row | SMILES | Potency
19 | CC(=O)Nc1cccc2cc(O)ccc12 | inconclusive: 39.8 µM [inhibitor, partial curve, poor fit]
3 | CCN(c1ncnc2c1cnn2-c1cc(Cl)ccc1C)C1CCCCC1 | inactive
14 | CN(C)c1ccc(C(=O)OCC(=O)Nc2ccc(N3CCOCC3)cc2)cc1 | inconclusive: 0.708 µM [inhibitor, full curve, poor fit]

(continued)

Row | SMILES | Potency
22 | O=C(Nc1ccncc1)c1cnn2c1NC(=C1CC1)C=C2C(F)F | inactive
23 | CCCN1Cc2cccc(C(=O)NC(CC(=O)OCC)c3ccc(OCC)c(OC)c3)c2C1=O (configuration not stated) | inconclusive: 79.4 µM [inhibitor, single point]
24 | O=[N+]([O-])c1ccccc1/C=C/c1ccnc2ccccc12 | inconclusive: 89.1 µM [inhibitor, partial curve, poor fit]
25 | O=C(Oc1cc(=O)oc2ccccc12)c1ccco1 | inconclusive: 5.62 µM [inhibitor, full curve, poor fit]
26 | CCC1CCCCN1CCCNC(=O)c1ccc2c(c1)N(Cc1cccc(C)c1)C(=O)c1ccccc1S2(=O)=O (configuration not stated) | inactive
27 | Cc1c2cnn(CC(=O)NCCc3ccccc3)c(=O)c2c(C)n1Cc1ccccc1Cl | inactive
28 | COc1ccc(Cn2c(=O)c3oc4ccccc4c3n(CC(=O)Nc3cc(C)cc(C)c3)c2=O)cc1 | inactive
29 | CCc1ccc(S(=O)(=O)N/N=C\c2ccc3c(c2)OCO3)cc1 | inconclusive: 89.1 µM [inhibitor, single point]
30 | COc1cc(OC)c(N(C)S(=O)(=O)c2cccc(C(=O)OCC(=O)NCc3ccco3)c2)cc1Cl | inactive
31 | O=C(NCc1ccccc1Cl)C(=O)NCC(c1ccco1)S(=O)(=O)c1cccs1 (configuration not stated) | inactive
32 | CCSc1nc2sc3c(c2c(=O)n1CC)CCC3 | inconclusive: 44.7 µM [inhibitor, partial curve, poor fit]
33 | CC(C)CC(NC(=O)/C(=C/c1ccco1)NC(=O)c1ccc(Br)o1)C(=O)O (configuration not stated) | inconclusive: 15.8 µM [inhibitor, full curve, poor fit]
34 | COc1ccc(/C=C(\C#N)c2nc(-c3ccc(Cl)c(Cl)c3)cs2)cc1OC | inactive
35 | Cc1ccc2nc(-c3ccc(NC(=O)Cc4cccs4)cc3)[nH]c2c1 | inconclusive: 89.1 µM [inhibitor, full curve]
36 | CCOc1ccc(C(=O)Nc2cccc(-c3cc4ccccc4oc3=O)c2)cc1[N+](=O)[O-] | inconclusive: 112 µM [inhibitor, partial curve, poor fit]
37 | COc1ccc(Cc2nnc(NC(=O)CSc3ccccc3)s2)cc1 | inconclusive: 35.5 µM [inhibitor, single point]
38 | CCC(C)N(CC(=O)Nc1cccc(C)c1C)C(=O)CCl (configuration not stated) | inconclusive: 100 µM [inhibitor, partial curve, poor fit]
39 | CC(=O)c1c(OC(=O)c2cccc(Cl)c2)c2ccccc2n1C | inconclusive: 22.4 µM [inhibitor, partial curve, poor fit]
40 | COCCCNC(=O)C1CC(=O)N(CCc2ccc(OC)c(OC)c2)C1 (configuration not stated) | inactive
41 | COC(=O)c1ccc(NC(=O)N2CCc3c([nH]c4ccccc34)C2c2ccc(C)cc2)cc1 (configuration not stated) | inactive
42 | CC(=O)N1CCc2cc(Br)cc(S(=O)(=O)N3CCC(C(=O)O)CC3)c21 | inconclusive: 7.94 µM [inhibitor, partial curve, poor fit]
